# Laboratory results as given in the supplement of paper PMC8728848.
# Some of the results follow.
# How the values were obtained:
# Test in all cases: glycan array binding signal (z-score within array); higher = stronger binding
# Details in all cases: glycan notation: IUPAC condensed, linker removed
# Gal(a1-3)Gal(b1-4)GlcNAc = molecular target: Gal(a1-3)Gal(b1-4)GlcNAc
# In short: (§1)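 Glycan array data came from 3228 arrays in the Consortium for Functional Glycomics database, and only arrays with an available protein sequence were kept. Glycan names were put into IUPAC-condensed notation, and columns mapping to the same glycan were averaged. The binding signal is a within-array Z-score, averaged across arrays of one protein sequence run at different concentrations or buffers and across linkers. A negative Z-score can be read as non-binding.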
# [1] = molecular target: Gal(a1-3)Gal(b1-4)GlcNAc(b1-2)Man
# In short: as §1
# [2] = molecular target: Gal(a1-3)Gal(b1-4)GlcNAc(b1-2)Man(a1-3)[Gal(a1-3)Gal(b1-4)GlcNAc(b1-2)Man(a1-6)]Man(b1-4)GlcNAc(b1-4)GlcNAc
# In short: as §1
# [3] = molecular target: Gal(a1-3)Gal(b1-4)GlcNAc(b1-3)GalNAc
# In short: as §1
# [4] = molecular target: Gal(a1-3)Gal(b1-4)GlcNAc(b1-6)GalNAc
# In short: as §1
# [5] = molecular target: Gal(a1-3)Gal(b1-4)[Fuc(a1-3)]GlcNAc
# In short: as §1
# [6] = molecular target: Gal(a1-3)Gal(b1-4)[Fuc(a1-3)]GlcNAc(b1-2)Man(a1-3)[Gal(a1-3)Gal(b1-4)[Fuc(a1-3)]GlcNAc(b1-2)Man(a1-6)]Man(b1-4)GlcNAc(b1-4)GlcNAc
# In short: as §1
# Gal(a1-3)GalNAc = molecular target: Gal(a1-3)GalNAc
# In short: as §1
# [7] = molecular target: Gal(a1-3)[Gal(a1-4)]Gal(b1-4)GlcNAc
# In short: as §1
# [8] = molecular target: Gal(a1-4)Gal(b1-3)GlcNAc(b1-2)Man(a1-3)[Gal(a1-4)Gal(b1-3)GlcNAc(b1-2)Man(a1-6)]Man(b1-4)GlcNAc(b1-4)GlcNAc
# In short: as §1
# Gal(a1-4)Gal(b1-4)Glc = molecular target: Gal(a1-4)Gal(b1-4)Glc
# In short: as §1
# Gal(a1-4)Gal(b1-4)GlcNAc = molecular target: Gal(a1-4)Gal(b1-4)GlcNAc
# In short: as §1
# [9] = molecular target: Gal(a1-4)Gal(b1-4)GlcNAc(b1-2)Man(a1-3)[Gal(a1-4)Gal(b1-4)GlcNAc(b1-2)Man(a1-6)]Man(b1-4)GlcNAc(b1-4)GlcNAc
# In short: as §1
# [10] = molecular target: Gal(a1-4)Gal(b1-4)GlcNAc(b1-3)Gal(b1-4)Glc
# In short: as §1
# Gal(a1-4)GlcNAc = molecular target: Gal(a1-4)GlcNAc
# In short: as §1
# Gal(a1-6)Glc = molecular target: Gal(a1-6)Glc
# In short: as §1
# Gal(b1-2)Gal = molecular target: Gal(b1-2)Gal
# In short: as §1
# Gal(b1-3)Gal = molecular target: Gal(b1-3)Gal
# In short: as §1
# Gal(b1-3)Gal(b1-4)GlcNAc = molecular target: Gal(b1-3)Gal(b1-4)GlcNAc
# In short: as §1
# Gal(b1-3)GalNAc = molecular target: Gal(b1-3)GalNAc
# In short: as §1
# [11] = molecular target: Gal(b1-3)GalNAc(a1-3)[Fuc(a1-2)]Gal(b1-4)Glc
# In short: as §1
# [12] = molecular target: Gal(b1-3)GalNAc(a1-3)[Fuc(a1-2)]Gal(b1-4)GlcNAc
# In short: as §1
# Gal(b1-3)GalNAc(b1-3)Gal = molecular target: Gal(b1-3)GalNAc(b1-3)Gal
# In short: as §1
# [13] = molecular target: Gal(b1-3)GalNAc(b1-3)Gal(a1-4)Gal(b1-4)Glc
# In short: as §1
# [14] = molecular target: Gal(b1-3)GalNAc(b1-4)Gal(b1-4)Glc
# In short: as §1
# [15] = molecular target: Gal(b1-3)GalNAc(b1-4)[Neu5Ac(a2-3)]Gal(b1-4)Glc
# In short: as §1
# Gal(b1-3)GlcNAc = molecular target: Gal(b1-3)GlcNAc
# In short: as §1
# [16] = molecular target: Gal(b1-3)GlcNAc(a1-3)Gal(b1-4)GlcNAc
# In short: as §1
# [17] = molecular target: Gal(b1-3)GlcNAc(a1-6)Gal(b1-4)GlcNAc
# In short: as §1
# Gal(b1-3)GlcNAc(b1-2)Man = molecular target: Gal(b1-3)GlcNAc(b1-2)Man
# In short: as §1
# [18] = molecular target: Gal(b1-3)GlcNAc(b1-2)Man(a1-3)[Gal(b1-3)GlcNAc(b1-2)Man(a1-6)]Man(b1-4)GlcNAc(b1-4)GlcNAc
# In short: as §1
# [19] = molecular target: Gal(b1-3)GlcNAc(b1-2)Man(a1-3)[Gal(b1-3)GlcNAc(b1-2)Man(a1-6)]Man(b1-4)GlcNAc(b1-4)[Fuc(a1-6)]GlcNAc
# In short: as §1
# [20] = molecular target: Gal(b1-3)GlcNAc(b1-2)Man(a1-3)[GlcNAc(b1-4)][Gal(b1-3)GlcNAc(b1-2)Man(a1-6)]Man(b1-4)GlcNAc(b1-4)GlcNAc
# In short: as §1
# [21] = molecular target: Gal(b1-3)GlcNAc(b1-2)[Gal(b1-3)GlcNAc(b1-6)]Man(a1-6)[Gal(b1-3)GlcNAc(b1-2)Man(a1-3)]Man(b1-4)GlcNAc(b1-4)GlcNAc
# In short: as §1
# [22] = molecular target: Gal(b1-3)GlcNAc(b1-3)Gal(b1-3)GlcNAc
# In short: as §1
# [23] = molecular target: Gal(b1-3)GlcNAc(b1-3)Gal(b1-4)Glc
# In short: as §1
# [24] = molecular target: Gal(b1-3)GlcNAc(b1-3)Gal(b1-4)GlcNAc
# In short: as §1
# [25] = molecular target: Gal(b1-3)GlcNAc(b1-3)Gal(b1-4)GlcNAc(b1-2)Man(a1-3)[Gal(b1-3)GlcNAc(b1-3)Gal(b1-4)GlcNAc(b1-2)Man(a1-6)]Man(b1-4)GlcNAc(b1-4)GlcNAc
# In short: as §1
# [26] = molecular target: Gal(b1-3)GlcNAc(b1-3)Gal(b1-4)GlcNAc(b1-2)[Gal(b1-3)GlcNAc(b1-3)Gal(b1-4)GlcNAc(b1-6)]Man(a1-6)[Gal(b1-3)GlcNAc(b1-3)Gal(b1-4)GlcNAc(b1-2)Man(a1-3)]Man(b1-4)GlcNAc(b1-4)[Fuc(a1-6)]GlcNAc
# In short: as §1
# [27] = molecular target: Gal(b1-3)GlcNAc(b1-3)Gal(b1-4)GlcNAc(b1-3)Gal(b1-4)GlcNAc(b1-2)[Gal(b1-3)GlcNAc(b1-3)Gal(b1-4)GlcNAc(b1-3)Gal(b1-4)GlcNAc(b1-6)]Man(a1-6)[Gal(b1-3)GlcNAc(b1-3)Gal(b1-4)GlcNAc(b1-3)Gal(b1-4)GlcNAc(b1-2)Man(a1-3)]Man(b1-4)GlcNAc(b1-4)[Fuc(a1-6)]GlcNAc
# In short: as §1
# [28] = molecular target: Gal(b1-3)GlcNAc(b1-3)Gal(b1-4)GlcNAc(b1-6)[Gal(b1-3)GlcNAc(b1-3)]Gal(b1-4)Glc
# In short: as §1
# [29] = molecular target: Gal(b1-3)GlcNAc(b1-3)Gal(b1-4)[Fuc(a1-3)]GlcNAc
# In short: as §1
# [30] = molecular target: Gal(b1-3)GlcNAc(b1-3)Gal(b1-4)[Fuc(a1-3)]GlcNAc(b1-6)[Gal(b1-3)GlcNAc(b1-3)]Gal(b1-4)Glc
# In short: as §1
# [31] = molecular target: Gal(b1-3)GlcNAc(b1-3)GalNAc
# In short: as §1
# [32] = molecular target: Gal(b1-3)GlcNAc(b1-6)Gal(b1-4)GlcNAc
# In short: as §1
binder,measurement,setting,value
"CBP21 (Serratia marcescens), O83009 (protein) MNKTSRTLLSLGLLSAAMFGVSQQANAHGYVESPASRAYQCKLQLNTQCGSVQYEPQSVEGLKGFPQAGPADGHIASADKSTFFELDQQTPTRWNKLNLKTGPNSFTWKLTARHSTTSWRYFITKPNWDASQPLTRASFDLTPFCQFNDGGAIPAAQVTHQCNIPADRSGSHVILAVWDIADTANAFYQAIDVNLSK",glycan array binding signal (z-score),Gal(a1-3)Gal(b1-4)GlcNAc,-0.806
same,glycan array binding signal (z-score),[1],-1.04
same,glycan array binding signal (z-score),[2],-0.019
same,glycan array binding signal (z-score),[3],-0.876
same,glycan array binding signal (z-score),[4],-0.138
same,glycan array binding signal (z-score),[5],-0.54
same,glycan array binding signal (z-score),[6],0.125
same,glycan array binding signal (z-score),Gal(a1-3)GalNAc,-0.024
same,glycan array binding signal (z-score),[7],0.762
same,glycan array binding signal (z-score),[8],-0.618
same,glycan array binding signal (z-score),Gal(a1-4)Gal(b1-4)Glc,-0.834
same,glycan array binding signal (z-score),Gal(a1-4)Gal(b1-4)GlcNAc,-0.126
same,glycan array binding signal (z-score),[9],0.617
same,glycan array binding signal (z-score),[10],0.777
same,glycan array binding signal (z-score),Gal(a1-4)GlcNAc,-0.226
same,glycan array binding signal (z-score),Gal(a1-6)Glc,-1.07
same,glycan array binding signal (z-score),Gal(b1-2)Gal,-1.48
same,glycan array binding signal (z-score),Gal(b1-3)Gal,0.337
same,glycan array binding signal (z-score),Gal(b1-3)Gal(b1-4)GlcNAc,0.038
same,glycan array binding signal (z-score),Gal(b1-3)GalNAc,0.091
same,glycan array binding signal (z-score),[11],-0.45
same,glycan array binding signal (z-score),[12],-0.828
same,glycan array binding signal (z-score),Gal(b1-3)GalNAc(b1-3)Gal,-0.7
same,glycan array binding signal (z-score),[13],0.964
same,glycan array binding signal (z-score),[14],1.25
same,glycan array binding signal (z-score),[15],1.15
same,glycan array binding signal (z-score),Gal(b1-3)GlcNAc,-0.226
same,glycan array binding signal (z-score),[16],0.425
same,glycan array binding signal (z-score),[17],0.999
same,glycan array binding signal (z-score),Gal(b1-3)GlcNAc(b1-2)Man,0.838
same,glycan array binding signal (z-score),[18],0.505
same,glycan array binding signal (z-score),[19],-0.019
same,glycan array binding signal (z-score),[20],1.17
same,glycan array binding signal (z-score),[21],0.911
same,glycan array binding signal (z-score),[22],-0.921
same,glycan array binding signal (z-score),[23],-1.55
same,glycan array binding signal (z-score),[24],0.895
same,glycan array binding signal (z-score),[25],0.699
same,glycan array binding signal (z-score),[26],3.27
same,glycan array binding signal (z-score),[27],-0.436
same,glycan array binding signal (z-score),[28],0.925
same,glycan array binding signal (z-score),[29],-1.29
same,glycan array binding signal (z-score),[30],0.446
same,glycan array binding signal (z-score),[31],-1.7
same,glycan array binding signal (z-score),[32],0.703
